assay: general procedure: Fmoc solid-phase peptide synthesis; ProTide Rink amide resin; Oxyma Pure (0.25 M) and N,N'-diisopropyl carbodiimide (0.125 M); details: conjugation step, Agilent Eclipse XDB-C18, 10-90% acetonitrile gradient, tracked at 280 nm

Substance | final HPLC purity [%]
GRASP(K2)–AlexaFluor546 conjugate | 99
PEG2-C4-alkyne-biotin conjugated GRASP at K2-azido | 95
GRASP(K2)–sulfo-Cy5 conjugate | 95

Source: paper PMC10461225 (Journal of Medicinal Chemistry, 2023)
